No constants are given. Whether binding was seen depends on the method and setting. A result given as binding can be weak or reduced; the word gives no strength.

Amino acid sequences for entries named in this document (tags omitted). A change or cut given only in a name is not applied to a line headed by its entry.
UniProt Q74M69: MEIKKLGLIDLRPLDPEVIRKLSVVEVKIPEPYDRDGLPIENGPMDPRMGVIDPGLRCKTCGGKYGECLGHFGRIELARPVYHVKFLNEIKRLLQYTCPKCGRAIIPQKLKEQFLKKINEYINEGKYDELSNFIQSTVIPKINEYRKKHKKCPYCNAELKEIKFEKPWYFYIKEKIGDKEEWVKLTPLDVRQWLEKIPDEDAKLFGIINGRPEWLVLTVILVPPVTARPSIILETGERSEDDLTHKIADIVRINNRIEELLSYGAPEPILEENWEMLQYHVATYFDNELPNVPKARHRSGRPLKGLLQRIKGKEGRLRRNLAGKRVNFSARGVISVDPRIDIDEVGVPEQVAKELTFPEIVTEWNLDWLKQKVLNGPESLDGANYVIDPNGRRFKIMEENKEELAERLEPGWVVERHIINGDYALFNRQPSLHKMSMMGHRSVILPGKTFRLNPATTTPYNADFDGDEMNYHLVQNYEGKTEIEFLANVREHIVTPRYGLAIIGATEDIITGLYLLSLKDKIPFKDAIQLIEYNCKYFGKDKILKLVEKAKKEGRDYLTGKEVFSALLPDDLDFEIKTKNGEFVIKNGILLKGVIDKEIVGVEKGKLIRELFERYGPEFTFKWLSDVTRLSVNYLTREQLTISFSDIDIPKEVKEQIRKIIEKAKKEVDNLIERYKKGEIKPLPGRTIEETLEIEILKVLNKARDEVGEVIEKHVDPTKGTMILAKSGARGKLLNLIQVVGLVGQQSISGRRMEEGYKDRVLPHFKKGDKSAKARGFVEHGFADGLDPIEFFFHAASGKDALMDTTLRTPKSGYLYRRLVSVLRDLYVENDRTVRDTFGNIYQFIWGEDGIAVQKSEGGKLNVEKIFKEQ
UniProt Q74M82: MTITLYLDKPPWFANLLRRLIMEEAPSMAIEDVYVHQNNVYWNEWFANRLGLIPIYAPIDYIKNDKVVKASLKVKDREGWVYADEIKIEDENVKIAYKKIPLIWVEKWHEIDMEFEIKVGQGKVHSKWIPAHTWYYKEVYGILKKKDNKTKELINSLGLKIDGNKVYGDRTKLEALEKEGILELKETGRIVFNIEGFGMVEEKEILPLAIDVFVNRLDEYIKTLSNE
UniProt Q74MN9: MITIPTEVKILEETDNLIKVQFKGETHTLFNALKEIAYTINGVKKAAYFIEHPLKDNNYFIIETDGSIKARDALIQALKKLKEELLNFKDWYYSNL
UniProt Q74M66: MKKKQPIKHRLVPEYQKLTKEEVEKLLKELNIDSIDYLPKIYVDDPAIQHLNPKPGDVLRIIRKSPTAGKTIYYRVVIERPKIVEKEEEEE
UniProt Q74NB5: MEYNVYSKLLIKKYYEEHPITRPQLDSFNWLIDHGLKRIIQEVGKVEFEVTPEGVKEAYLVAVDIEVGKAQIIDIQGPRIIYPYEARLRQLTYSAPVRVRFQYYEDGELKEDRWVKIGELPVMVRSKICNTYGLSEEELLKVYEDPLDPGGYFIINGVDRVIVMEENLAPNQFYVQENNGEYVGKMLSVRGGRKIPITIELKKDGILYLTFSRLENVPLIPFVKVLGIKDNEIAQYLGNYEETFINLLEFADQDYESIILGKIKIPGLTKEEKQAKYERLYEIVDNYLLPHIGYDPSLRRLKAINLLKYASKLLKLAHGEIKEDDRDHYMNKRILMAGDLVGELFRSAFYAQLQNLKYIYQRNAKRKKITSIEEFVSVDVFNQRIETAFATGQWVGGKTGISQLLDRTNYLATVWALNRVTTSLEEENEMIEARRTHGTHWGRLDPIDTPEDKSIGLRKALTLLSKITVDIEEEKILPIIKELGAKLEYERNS
UniProt Q74MB5: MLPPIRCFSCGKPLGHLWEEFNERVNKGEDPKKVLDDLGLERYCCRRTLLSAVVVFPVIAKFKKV
UniProt Q74MN2: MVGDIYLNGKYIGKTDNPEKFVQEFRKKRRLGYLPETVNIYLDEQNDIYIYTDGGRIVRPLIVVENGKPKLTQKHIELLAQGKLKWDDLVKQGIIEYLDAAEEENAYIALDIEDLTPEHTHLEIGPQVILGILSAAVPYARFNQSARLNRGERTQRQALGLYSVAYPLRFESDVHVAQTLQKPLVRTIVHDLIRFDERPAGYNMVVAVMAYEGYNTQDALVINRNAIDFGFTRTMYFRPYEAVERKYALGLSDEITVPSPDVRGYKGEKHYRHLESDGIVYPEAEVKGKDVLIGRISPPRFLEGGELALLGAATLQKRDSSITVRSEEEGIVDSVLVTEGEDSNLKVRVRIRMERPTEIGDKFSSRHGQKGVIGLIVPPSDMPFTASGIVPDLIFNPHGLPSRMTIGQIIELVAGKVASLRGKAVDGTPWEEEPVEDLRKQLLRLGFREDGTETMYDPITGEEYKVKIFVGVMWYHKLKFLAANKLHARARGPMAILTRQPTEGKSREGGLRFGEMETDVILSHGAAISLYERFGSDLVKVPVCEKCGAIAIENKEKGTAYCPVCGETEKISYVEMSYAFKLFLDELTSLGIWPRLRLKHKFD

Drawing on paper PMC8204694, this text covers binding for six substances.

For the assay, the target named is Nanoarchaeum equitans RNA polymerase subunit A′ (Nanoarchaeum equitans) (UniProt Q74M69). The assay can be described thus: SEC; subunits mixed in 8 M urea (large subunits equimolar, small subunits in at least four-fold excess), refolded by dialysis; assembly reaction run on a Superose-6 size-exclusion column at 0.5 ml/min; fractions on a silver-stained Bis/Tris 4-12% SDS gel and tested for transcriptional activity; both purified.

“Nanoarchaeum equitans RNA polymerase subunit D (from UniProt Q74M82)”: the binding result is recorded as “binds”.

As for “Nanoarchaeum equitans RNA polymerase subunit L (from UniProt Q74MN9)”, the binding result is recorded as “binds”. Next, “Nanoarchaeum equitans RNA polymerase subunit H (from UniProt Q74M66)”: “binds”. For the substance “Nanoarchaeum equitans RNA polymerase subunit B″ (from UniProt Q74NB5)”, the binding entry is reported as “binds”. Next, “Nanoarchaeum equitans RNA polymerase subunit N (from UniProt Q74MB5)”: “binds”; “Nanoarchaeum equitans RNA polymerase subunit B′ (from UniProt Q74MN2)”: “binds”.
